From article PMC12204631

B1: UIP4 (protein, UniProt Q08926 1-304)
chain: MVTIVFDHPAEDFPELKIAGEFTNWEGVPMKINTSSGKWEYKFDESSVTKHNDKDKVHFKFIDQNGNWFADDEYPKEVDEHSNENNVATLNNEEDGGSAGEEKDEGDKTAHNTNENGSELYYEGPETPTPSLKGNVTFPSPKTAISQDGSAFAKETTRKERKYEHAPLNEVPVERDPKEENKELSPNFSQEQTENKQDKGLDNLSEGNDNDNTRVNEDTDVTDTQESEHEINGSDTENTDMSEQEEIQKIDKPADQNAKSIVKEGDANTEDYESVLKKLLGALGRFFGSWFSWLTTKMSSSEAS
B2: SNL1 (protein, UniProt P40548 1-159)
chain: MSHNAMEHWKSKLSKTSTSTYVLLAVIAVVFLVTIRRPNGSKGKSSKKRASKKNKKGKNQFEKAPVPLTLEEQIDNVSLRYGNELEGRSKDLINRFDVEDEKDIYERNYCNEMLLKLLIELDSIDLINVDESLRRPLKEKRKGVIKEIQAMLKSLDSLK
B3: PSE1 (protein, UniProt P32337 1-1089)
chain: MSALPEEVNRTLLQIVQAFASPDNQIRSVAEKALSEEWITENNIEYLLTFLAEQAAFSQDTTVAALSAVLFRKLALKAPPSSKLMIMSKNITHIRKEVLAQIRSSLLKGFLSERADSIRHKLSDAIAECVQDDLPAWPELLQALIESLKSGNPNFRESSFRILTTVPYLITAVDINSILPIFQSGFTDASDNVKIAAVTAFVGYFKQLPKSEWSKLGILLPSLLNSLPRFLDDGKDDALASVFESLIELVELAPKLFKDMFDQIIQFTDMVIKNKDLEPPARTTALELLTVFSENAPQMCKSNQNYGQTLVMVTLIMMTEVSIDDDDAAEWIESDDTDDEEEVTYDHARQALDRVALKLGGEYLAAPLFQYLQQMITSTEWRERFAAMMALSSAAEGCADVLIGEIPKILDMVIPLINDPHPRVQYGCCNVLGQISTDFSPFIQRTAHDRILPALISKLTSECTSRVQTHAAAALVNFSEFASKDILEPYLDSLLTNLLVLLQSNKLYVQEQALTTIAFIAEAAKNKFIKYYDTLMPLLLNVLKVNNKDNSVLKGKCMECATLIGFAVGKEKFHEHSQELISILVALQNSDIDEDDALRSYLEQSWSRICRILGDDFVPLLPIVIPPLLITAKATQDVGLIEEEEAANFQQYPDWDVVQVQGKHIAIHTSVLDDKVSAMELLQSYATLLRGQFAVYVKEVMEEIALPSLDFYLHDGVRAAGATLIPILLSCLLAATGTQNEELVLLWHKASSKLIGGLMSEPMPEITQVYHNSLVNGIKVMGDNCLSEDQLAAFTKGVSANLTDTYERMQDRHGDGDEYNENIDEEEDFTDEDLLDEINKSIAAVLKTTNGHYLKNLENIWPMINTFLLDNEPILVIFALVVIGDLIQYGGEQTASMKNAFIPKVTECLISPDARIRQAASYIIGVCAQYAPSTYADVCIPTLDTLVQIVDFPGSKLEENRSSTENASAAIAKILYAYNSNIPNVDTYTANWFKTLPTITDKEAASFNYQFLSQLIENNSPIVCAQSNISAVVDSVIQALNERSLTEREGQTVISSVKKLLGFLPSSDAMAIFNRYPADIMEKVHKWFA
B4: CBF2 (protein, UniProt P32504 1-956)
chain: MRSSILFLLKLMKIMDVQQQQEAMSSEDRFQELVDSLKPRTAHQYKTYYTKYIQWCQLNQIIPTPEDNSVNSVPYKDLPISAELIHWFLLDTLITDDKPGEKREETEDLDEEEENSFKIATLKKIIGSLNFLSKLCKVHENPNANIDTKYLESVTKLHTHWIDSQKAITTNETNNTNTQVLCPPLLKVSLNLWNPETNHLSEKFFKTCSEKLRFLVDFQLRSYLNLSFEERSKIRFGSLKLGKRDRDAIIYHKVTHSAEKKDTPGHHQLLALLPQDCPFICPQTTLAAYLYLRFYGIPSVSKGDGFPNLNADENGSLLQDIPILRGKSLTTYPREETFSNYYTTVFRYCHLPYKRREYFNKCNLVYPTWDEDTFRTFFNEENHGNWLEQPEAFAFPDKIPFDFKKIMNFKSPYTSYSTNAKKDPFPPPKDLLVQIFPEIDEYKRHDYEGLSQNSRDFLDLMEVLRERFLSNLPWIYKFFPNHDIFQDPIFGNSDFQSYFNDKTIHSKGSPILSFDILPGFNKIYKNKTNFYSLLIERPSQLTFASSHNPDTHPTQKQESEGPLQMSQLDTTQLNELLKQQSFEYVQFQTLSNFQILLSVFNKIFEKLEMKKSSRGYILHQLNLFKITLDERIKKSKIDDADKFIRDNQPIKKEENIVNEDGPNTSRRTKRPKQIRLLSIADSSDESSTEDSNVFKKDGESIEDGAYGENEDENDSEMQEQLKSMINELINSKISTFLRDQMDQFELKINALLDKILEEKVTRIIEQKLGSHTGKFSTLKRPQLYMTEEHNVGFDMEVPKKLRTSGKYAETVKDNDDHQAMSTTASPSPEQDQEAKSYTDEQEFMLDKSIDSIEGIILEWFTPNAKYANQCVHSMNKSGNKSWRANCEALYKERKSIVEFYIYLVNHESLDRYKAVDICEKLRDQNEGSFSRLAKFLRKWRHDHQNSFDGLLVYLSN
B5: SEH1 (protein, UniProt P53011 1-349)
chain: MQPFDSGHDDLVHDVVYDFYGRHVATCSSDQHIKVFKLDKDTSNWELSDSWRAHDSSIVAIDWASPEYGRIIASASYDKTVKLWEEDPDQEECSGRRWNKLCTLNDSKGSLYSVKFAPAHLGLKLACLGNDGILRLYDALEPSDLRSWTLTSEMKVLSIPPANHLQSDFCLSWCPSRFSPEKLAVSALEQAIIYQRGKDGKLHVAAKLPGHKSLIRSISWAPSIGRWYQLIATGCKDGRIRIFKITEKLSPLASEESLTNSNMFDNSADVDMDAQGRSDSNTEEKAELQSNLQVELLSEHDDHNGEVWSVSWNLTGTILSSAGDDGKVRLWKATYSNEFKCMSVITAQQ
B6: PER33 (protein, UniProt Q12144 1-273)
chain: MTVPRNRPMAPFGTIIKSRIKQPQFYWFIGHFLTIFNFIQFHLSITSKQNQLSCYRRSLFYISVTYAIVLYQFFKSDQLKFNFTLLRQEMKKLDNLQYFAMLFILFLLSQFNIIISGSLYSPVIFSIFHFLNYFKENLLPFLPLIPLNLKNLLNSKITVFIQNYNGFFLQMAQVFEIICGLRVGLFLVPFNFFLLLVRRANVSFEVVGTMLAGLTYVWFFKLRYLQSESMRQIFKQYVLRLDAYVSRTLPPYCSRLWNGYKNFVMTVFWKIPV
B7: AFT1 (protein, UniProt P22149 1-690)
chain: MEGFNPADIEHASPINSSDSHSSSFVYALPKSASEYVVNHNEGRASASGNPAAVPSPIMTLNLKSTHSLNIDQHVHTSTSPTETIGHIHHVEKLNQNNLIHLDPVPNFEDKSDIKPWLQKIFYPQGIELVIERSDAFKVVFKCKAAKRGRNARRKRKDKPKGQDHEDEKSKINDDELEYASPSNATVTNGPQTSPDQTSSIKPKKKRCVSRFNNCPFRVRATYSLKRKRWSIVVMDNNHSHQLKFNPDSEEYKKFKEKLRKDNDVDAIKKFDELEYRTLANLPIPTATIPCDCGLTNEIQSFNVVLPTNSNVTSSASSSTVSSISLDSSNASKRPCLPSVNNTGSINTNNVRKPKSQCKNKDTLLKRTTMQNFLTTKSRLRKTGTPTSSQHSSTAFSGYIDDPFNLNEILPLPASDFKLNTVTNLNEIDFTNIFTKSPHPHSGSTHPRQVFDQLDDCSSILFSPLTTNTNNEFEGESDDFVHSPYLNSEADFSQILSSAPPVHHDPNETHQENQDIIDRFANSSQEHNEYILQYLTHSDAANHNNIGVPNNNSHSLNTQHNVSDLGNSLLRQEALVGSSSTKIFDELKFVQNGPHGSQHPIDFQHVDHRHLSSNEPQVRSHQYGPQQQPPQQLQYHQNQPHDGHNHEQHQTVQKDMQTHESLEIMGNTLLEEFKDIKMVNGELKYVKPED
B8: NUP120 (protein, UniProt P35729 1-1037)
chain: MACLSRIDANLLQYYEKPEPNNTVDLYVSNNSNNNGLKEGDKSISTPVPQPYGSEYSNCLLLSNSEYICYHFSSRSTLLTFYPLSDAYHGKTINIHLPNASMNQRYTLTIQEVEQQLLVNVILKDGSFLTLQLPLSFLFSSANTLNGEWFHLQNPYDFTVRVPHFLFYVSPQFSVVFLEDGGLLGLKKVDGVHYEPLLFNDNSYLKSLTRFFSRSSKSDYDSVISCKLFHERYLIVLTQNCHLKIWDLTSFTLIQDYDMVSQSDSDPSHFRKVEAVGEYLSLYNNTLVTLLPLENGLFQMGTLLVDSSGILTYTFQNNIPTNLSASAIWSIVDLVLTRPLELNVEASYLNLIVLWKSGTASKLQILNVNDESFKNYEWIESVNKSLVDLQSEHDLDIVTKTGDVERGFCNLKSRYGTQIFERAQQILSENKIIMAHNEDEEYLANLETILRDVKTAFNEASSITLYGDEIILVNCFQPYNHSLYKLNTTVENWFYNMHSETDGSELFKYLRTLNGFASTLSNDVLRSISKKFLDIITGELPDSMTTVEKFTDIFKNCLENQFEITNLKILFDELNSFDIPVVLNDLINNQMKPGIFWKKDFISAIKFDGFTSIISLESLHQLLSIHYRITLQVLLTFVLFDLDTEIFGQHISTLLDLHYKQFLLLNLYRQDKCLLAEVLLKDSSEFSFGVKFFNYGQLIAYIDSLNSNVYNASITENSFFMTFFRSYIIENTSHKNIRFFLENVECPFYLRHNEVQEFMFAMTLFSCGNFDQSYEIFQLHDYPEAINDKLPTFLEDLKSENYHGDSIWKDLLCTFTVPYRHSAFYYQLSLLFDRNNSQEFALKCISKSAEYSLKEIQIEELQDFKEKQHIHYLNLLIHFRMFEEVLDVLRLGHECLSDTVRTNFLQLLLQEDIYSRDFFSTLLRLCNAHSDNGELYLRTVDIKIVDSILSQNLRSGDWECFKKLYCFRMLNKSERAAAEVLYQYILMQADLDVIRKRKCYLMVINVLSSFDSAYDQWILNGSKVVTLTDLRDELRGL

The binders below were run against T1, 6HIS-HA-JHD2 (S. cerevisiae) (UniProt P47156) (assay: affinity purification with mass spectrometry; whole cell extracts of a wild-type strain with 6HIS-HA-JHD2 induced from the GAL1 promoter for 6 hours; Ni-NTA agarose and anti-HA agarose beads at 4°C for 24 hours; proteins found with the empty vector strain excluded).
T1 sequence: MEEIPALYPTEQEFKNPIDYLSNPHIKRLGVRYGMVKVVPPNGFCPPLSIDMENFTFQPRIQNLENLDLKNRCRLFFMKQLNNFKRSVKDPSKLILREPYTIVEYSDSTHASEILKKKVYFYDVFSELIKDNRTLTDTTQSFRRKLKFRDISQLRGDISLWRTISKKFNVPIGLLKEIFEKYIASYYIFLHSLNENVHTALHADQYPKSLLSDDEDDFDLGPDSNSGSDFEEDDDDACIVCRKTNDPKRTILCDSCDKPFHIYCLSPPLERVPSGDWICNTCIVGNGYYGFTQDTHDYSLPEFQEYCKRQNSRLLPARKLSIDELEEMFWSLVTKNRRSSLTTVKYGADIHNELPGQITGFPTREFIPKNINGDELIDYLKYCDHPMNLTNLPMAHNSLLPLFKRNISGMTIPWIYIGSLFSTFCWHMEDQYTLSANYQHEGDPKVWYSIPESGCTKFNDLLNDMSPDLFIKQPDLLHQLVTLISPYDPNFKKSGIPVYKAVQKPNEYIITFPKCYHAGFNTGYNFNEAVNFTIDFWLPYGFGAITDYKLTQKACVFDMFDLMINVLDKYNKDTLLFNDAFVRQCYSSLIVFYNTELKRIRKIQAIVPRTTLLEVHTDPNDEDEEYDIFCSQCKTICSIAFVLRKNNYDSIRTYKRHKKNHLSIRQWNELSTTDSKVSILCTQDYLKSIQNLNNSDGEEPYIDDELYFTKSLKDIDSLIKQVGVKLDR

binding, binds:
B1, B2, B3, B4, B5, B6, B7, B8

No constants are given. Whether binding was seen depends on the method and setting. In cells and extracts the contact can be indirect. These calls come from enrichment with a bait or labelling near it, and not all partners need be listed. Tags and fused reporters may be left off the sequences shown.
